Data as given in patent publication US9610363B2, “Methods for inhibiting starvation of a cell” (PRESIDENT AND FELLOWS OF HARVARD COLLEGE, priority 2009, dated 2017).

Assay: Blood glucose levels during treatment
Format: in vivo
Conditions: systemic administration, PDE-β−/− mice

Molecule | blood glucose levels
CN(N=O)C(=O)N[C@H]1C(O)O[C@H](CO)[C@@H](O)[C@@H]1O (mixture of isomers) [streptozotocin] | increased blood glucose levels
insulin | increase in blood glucose levels
